From the supplement of paper PMC10849652
Some of the results follow.

By UniProt entry, the sequences of proteins in these tests, tags left out. Where a name states a change or a piece, a line headed by the entry shows the natural chain unless it says otherwise.
UniProt Q9BYG0: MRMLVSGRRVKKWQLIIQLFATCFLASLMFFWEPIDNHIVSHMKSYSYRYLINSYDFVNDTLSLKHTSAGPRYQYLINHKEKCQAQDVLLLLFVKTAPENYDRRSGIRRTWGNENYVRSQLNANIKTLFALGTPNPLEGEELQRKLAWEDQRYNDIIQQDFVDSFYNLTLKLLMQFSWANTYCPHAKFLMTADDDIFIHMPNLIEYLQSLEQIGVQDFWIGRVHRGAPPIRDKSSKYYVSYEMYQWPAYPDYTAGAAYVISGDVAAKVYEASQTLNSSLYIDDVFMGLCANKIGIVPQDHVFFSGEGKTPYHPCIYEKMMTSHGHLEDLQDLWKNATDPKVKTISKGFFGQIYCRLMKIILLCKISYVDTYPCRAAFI
UniProt O60513: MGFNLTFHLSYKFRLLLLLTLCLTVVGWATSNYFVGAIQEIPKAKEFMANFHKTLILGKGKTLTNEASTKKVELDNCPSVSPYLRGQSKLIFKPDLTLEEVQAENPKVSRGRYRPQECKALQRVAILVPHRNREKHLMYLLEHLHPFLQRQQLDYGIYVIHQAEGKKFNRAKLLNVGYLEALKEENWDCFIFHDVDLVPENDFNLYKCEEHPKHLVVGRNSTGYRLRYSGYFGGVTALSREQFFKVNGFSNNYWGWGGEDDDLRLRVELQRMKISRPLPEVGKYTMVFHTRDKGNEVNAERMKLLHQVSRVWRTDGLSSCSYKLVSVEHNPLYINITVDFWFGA
UniProt Q8WY22: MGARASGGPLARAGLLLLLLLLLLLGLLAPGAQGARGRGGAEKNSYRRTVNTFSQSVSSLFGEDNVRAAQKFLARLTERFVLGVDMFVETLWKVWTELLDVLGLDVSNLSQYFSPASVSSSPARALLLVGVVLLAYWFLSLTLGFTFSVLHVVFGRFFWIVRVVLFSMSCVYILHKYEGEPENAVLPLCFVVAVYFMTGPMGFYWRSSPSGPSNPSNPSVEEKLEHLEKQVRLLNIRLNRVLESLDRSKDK
UniProt Q9BUT1: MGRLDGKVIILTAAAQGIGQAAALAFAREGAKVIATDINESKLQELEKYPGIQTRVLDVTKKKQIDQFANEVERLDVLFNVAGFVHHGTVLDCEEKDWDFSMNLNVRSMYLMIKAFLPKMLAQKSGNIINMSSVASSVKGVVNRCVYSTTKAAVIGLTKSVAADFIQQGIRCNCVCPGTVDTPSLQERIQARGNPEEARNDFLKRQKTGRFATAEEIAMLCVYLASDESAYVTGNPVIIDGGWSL
UniProt H3BUF6: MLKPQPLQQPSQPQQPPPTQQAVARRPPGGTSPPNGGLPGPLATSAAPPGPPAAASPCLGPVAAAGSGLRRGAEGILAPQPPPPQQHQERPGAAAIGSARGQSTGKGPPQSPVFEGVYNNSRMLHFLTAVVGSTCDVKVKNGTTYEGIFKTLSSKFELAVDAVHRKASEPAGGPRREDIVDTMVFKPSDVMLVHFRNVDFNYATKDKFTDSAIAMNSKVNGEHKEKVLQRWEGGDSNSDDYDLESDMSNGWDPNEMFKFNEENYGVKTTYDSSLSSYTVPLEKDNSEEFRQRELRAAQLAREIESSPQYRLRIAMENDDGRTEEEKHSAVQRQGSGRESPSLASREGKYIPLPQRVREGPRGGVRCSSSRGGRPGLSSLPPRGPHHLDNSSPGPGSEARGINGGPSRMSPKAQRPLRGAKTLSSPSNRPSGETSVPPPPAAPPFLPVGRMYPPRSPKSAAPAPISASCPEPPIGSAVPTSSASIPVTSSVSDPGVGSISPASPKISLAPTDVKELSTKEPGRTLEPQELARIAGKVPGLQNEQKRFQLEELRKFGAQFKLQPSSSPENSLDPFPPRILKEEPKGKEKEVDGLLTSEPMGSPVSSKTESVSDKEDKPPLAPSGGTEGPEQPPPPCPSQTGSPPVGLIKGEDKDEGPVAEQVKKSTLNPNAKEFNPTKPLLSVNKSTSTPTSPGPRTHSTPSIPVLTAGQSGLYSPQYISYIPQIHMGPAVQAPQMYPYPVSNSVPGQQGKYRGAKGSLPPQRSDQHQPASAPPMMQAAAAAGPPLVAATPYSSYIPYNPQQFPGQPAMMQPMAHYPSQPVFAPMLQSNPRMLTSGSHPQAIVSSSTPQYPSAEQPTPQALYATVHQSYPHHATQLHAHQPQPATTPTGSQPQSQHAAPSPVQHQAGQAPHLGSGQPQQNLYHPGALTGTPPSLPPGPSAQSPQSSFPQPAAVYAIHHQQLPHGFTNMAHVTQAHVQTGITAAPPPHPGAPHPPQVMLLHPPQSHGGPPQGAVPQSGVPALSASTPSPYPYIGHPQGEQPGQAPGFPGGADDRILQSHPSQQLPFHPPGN
UniProt P15056, whole entry, looked up: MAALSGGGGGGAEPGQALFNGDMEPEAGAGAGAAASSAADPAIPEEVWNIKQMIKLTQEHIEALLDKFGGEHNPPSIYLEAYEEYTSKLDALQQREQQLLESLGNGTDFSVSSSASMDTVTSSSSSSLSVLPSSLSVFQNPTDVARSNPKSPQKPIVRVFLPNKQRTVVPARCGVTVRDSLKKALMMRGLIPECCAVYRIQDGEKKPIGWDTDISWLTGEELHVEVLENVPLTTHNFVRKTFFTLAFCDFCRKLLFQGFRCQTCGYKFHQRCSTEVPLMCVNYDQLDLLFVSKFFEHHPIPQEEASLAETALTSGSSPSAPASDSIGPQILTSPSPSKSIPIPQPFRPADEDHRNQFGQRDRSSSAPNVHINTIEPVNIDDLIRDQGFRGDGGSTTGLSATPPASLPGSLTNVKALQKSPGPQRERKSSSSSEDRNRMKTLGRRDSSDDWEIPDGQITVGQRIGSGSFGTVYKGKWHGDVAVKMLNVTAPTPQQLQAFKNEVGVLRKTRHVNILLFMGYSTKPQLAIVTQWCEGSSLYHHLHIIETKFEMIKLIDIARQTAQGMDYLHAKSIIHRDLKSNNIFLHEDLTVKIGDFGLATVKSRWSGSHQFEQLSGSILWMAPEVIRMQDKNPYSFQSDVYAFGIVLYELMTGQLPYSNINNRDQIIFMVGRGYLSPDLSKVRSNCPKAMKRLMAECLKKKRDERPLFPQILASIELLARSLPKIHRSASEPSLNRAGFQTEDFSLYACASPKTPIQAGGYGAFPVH
UniProt Q7Z5W3: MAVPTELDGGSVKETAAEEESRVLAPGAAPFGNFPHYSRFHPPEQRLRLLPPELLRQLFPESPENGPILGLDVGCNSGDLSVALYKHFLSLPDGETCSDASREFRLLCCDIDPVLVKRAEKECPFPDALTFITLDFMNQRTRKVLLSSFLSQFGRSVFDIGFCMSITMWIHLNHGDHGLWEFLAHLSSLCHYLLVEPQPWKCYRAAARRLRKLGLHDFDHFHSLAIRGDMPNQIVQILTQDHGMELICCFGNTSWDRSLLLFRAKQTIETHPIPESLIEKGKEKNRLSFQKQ
UniProt Q14CW9: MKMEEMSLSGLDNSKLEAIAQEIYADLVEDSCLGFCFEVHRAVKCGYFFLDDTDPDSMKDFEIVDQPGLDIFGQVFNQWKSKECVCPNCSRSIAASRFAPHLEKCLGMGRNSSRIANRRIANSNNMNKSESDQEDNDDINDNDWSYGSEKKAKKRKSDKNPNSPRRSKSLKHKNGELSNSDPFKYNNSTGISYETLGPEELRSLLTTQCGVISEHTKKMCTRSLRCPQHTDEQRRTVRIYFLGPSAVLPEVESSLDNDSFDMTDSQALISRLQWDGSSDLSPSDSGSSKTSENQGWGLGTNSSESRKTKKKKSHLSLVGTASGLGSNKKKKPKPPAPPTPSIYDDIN
UniProt Q96B45: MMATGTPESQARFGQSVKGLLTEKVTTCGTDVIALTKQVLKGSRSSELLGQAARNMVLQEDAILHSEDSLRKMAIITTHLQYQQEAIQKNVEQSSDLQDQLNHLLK
UniProt P56945: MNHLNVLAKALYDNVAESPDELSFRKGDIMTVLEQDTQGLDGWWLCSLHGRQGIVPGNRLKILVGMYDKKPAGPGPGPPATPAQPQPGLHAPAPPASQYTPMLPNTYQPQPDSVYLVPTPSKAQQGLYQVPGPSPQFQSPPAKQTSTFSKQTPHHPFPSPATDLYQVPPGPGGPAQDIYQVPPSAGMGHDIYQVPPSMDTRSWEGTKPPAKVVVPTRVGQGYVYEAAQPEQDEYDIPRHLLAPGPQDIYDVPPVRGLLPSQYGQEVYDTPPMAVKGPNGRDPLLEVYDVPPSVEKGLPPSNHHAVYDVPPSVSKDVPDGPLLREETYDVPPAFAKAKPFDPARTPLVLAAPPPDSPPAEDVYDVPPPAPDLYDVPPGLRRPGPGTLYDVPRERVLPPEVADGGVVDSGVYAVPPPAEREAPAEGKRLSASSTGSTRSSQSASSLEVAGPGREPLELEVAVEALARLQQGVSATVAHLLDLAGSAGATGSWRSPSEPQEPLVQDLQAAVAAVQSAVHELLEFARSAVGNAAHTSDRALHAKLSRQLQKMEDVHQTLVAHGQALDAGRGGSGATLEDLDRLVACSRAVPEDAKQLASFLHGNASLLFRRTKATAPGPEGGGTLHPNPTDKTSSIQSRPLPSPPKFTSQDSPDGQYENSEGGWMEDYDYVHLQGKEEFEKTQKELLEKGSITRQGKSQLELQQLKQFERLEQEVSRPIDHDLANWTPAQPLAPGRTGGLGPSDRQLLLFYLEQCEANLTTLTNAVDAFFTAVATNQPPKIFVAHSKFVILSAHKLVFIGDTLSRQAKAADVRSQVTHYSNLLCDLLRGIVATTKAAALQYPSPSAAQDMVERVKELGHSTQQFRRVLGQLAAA
UniProt P11274: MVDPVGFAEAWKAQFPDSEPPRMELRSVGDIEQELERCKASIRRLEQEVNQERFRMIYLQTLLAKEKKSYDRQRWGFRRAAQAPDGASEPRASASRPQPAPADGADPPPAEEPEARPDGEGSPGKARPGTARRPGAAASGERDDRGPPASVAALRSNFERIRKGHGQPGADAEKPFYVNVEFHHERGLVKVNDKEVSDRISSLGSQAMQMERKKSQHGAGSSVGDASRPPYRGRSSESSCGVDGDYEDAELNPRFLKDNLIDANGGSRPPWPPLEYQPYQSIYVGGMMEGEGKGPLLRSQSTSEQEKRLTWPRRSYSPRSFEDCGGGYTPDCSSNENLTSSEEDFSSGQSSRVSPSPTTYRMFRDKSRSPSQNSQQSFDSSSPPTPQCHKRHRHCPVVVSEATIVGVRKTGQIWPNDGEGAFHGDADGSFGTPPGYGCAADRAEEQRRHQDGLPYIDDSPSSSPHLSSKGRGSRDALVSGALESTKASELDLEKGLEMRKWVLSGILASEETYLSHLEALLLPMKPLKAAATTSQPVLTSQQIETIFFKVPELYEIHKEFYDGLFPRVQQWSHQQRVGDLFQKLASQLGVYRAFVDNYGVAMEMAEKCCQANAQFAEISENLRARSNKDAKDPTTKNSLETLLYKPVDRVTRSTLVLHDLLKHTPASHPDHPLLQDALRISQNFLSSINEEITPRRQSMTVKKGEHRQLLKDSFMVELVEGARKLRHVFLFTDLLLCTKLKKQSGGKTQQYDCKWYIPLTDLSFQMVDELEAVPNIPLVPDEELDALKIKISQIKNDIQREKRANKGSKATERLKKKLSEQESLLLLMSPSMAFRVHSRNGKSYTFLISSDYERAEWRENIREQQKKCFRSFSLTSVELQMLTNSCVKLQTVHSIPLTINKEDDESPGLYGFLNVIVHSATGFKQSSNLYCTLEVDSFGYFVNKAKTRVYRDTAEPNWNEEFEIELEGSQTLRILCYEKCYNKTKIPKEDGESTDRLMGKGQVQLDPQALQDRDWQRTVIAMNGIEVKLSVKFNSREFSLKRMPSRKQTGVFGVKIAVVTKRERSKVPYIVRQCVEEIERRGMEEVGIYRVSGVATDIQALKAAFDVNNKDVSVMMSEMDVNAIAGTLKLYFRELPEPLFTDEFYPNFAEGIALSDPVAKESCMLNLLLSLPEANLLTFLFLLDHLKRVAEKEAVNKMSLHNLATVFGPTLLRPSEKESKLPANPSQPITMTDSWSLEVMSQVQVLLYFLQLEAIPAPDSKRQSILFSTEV
UniProt Q9NQS1: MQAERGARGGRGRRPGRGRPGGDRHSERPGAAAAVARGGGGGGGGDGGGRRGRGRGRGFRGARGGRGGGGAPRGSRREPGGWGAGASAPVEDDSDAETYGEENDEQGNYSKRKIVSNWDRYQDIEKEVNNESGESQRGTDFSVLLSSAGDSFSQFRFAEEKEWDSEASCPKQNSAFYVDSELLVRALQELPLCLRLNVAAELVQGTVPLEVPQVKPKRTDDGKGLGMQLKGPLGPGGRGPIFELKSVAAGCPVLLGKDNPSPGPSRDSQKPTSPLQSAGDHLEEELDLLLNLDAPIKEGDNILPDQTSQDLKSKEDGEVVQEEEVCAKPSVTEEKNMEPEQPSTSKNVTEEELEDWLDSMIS
UniProt Q9NWD9: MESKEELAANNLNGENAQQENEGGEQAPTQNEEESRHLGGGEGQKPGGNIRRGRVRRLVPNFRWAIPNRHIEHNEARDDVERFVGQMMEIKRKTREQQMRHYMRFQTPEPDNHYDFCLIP

What was measured:
Assay in all cases: log2 fold change, soluble protein after heating vs DMSO (PISA); higher = thermal stabilisation; K562 cells, 10 uM, 30 min; active = over 0.2 and 3.5 SD of the protein, either way, in both replicates (recomputed)
bafetinib = compound: Cc1ccc(NC(=O)c2ccc(CN3CC[C@H](N(C)C)C3)c(C(F)(F)F)c2)cc1Nc1nccc(-c2cncnc2)n1 [bafetinib]
Method in brief: (§1)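 Values are thermal stability changes relative to control samples and are taken from duplicates. They are stated as log2 fold changes. Before quantification by TMTpro 16plex LC-MS/MS with equalised channel sums, K562 cells at 2×10^6 cells/mL were treated with 10 μM compound for 30 min, heated in aliquots for 3 min across 48°C-58°C, pooled, extracted in PBS with 0.5% NP-40 at 4°C, and centrifuged at 21,000xg for 90 min to give the soluble supernatant.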

nilotinib = compound: Cc1cn(-c2cc(NC(=O)c3ccc(C)c(Nc4nccc(-c5cccnc5)n4)c3)cc(C(F)(F)F)c2)cn1 [nilotinib]
Method in brief: as §1

[1] = compound: Cc1nc(Nc2n[nH]c3c2CN(C(=O)N[C@H](CN(C)C)c2ccccc2)C3(C)C)c2sccc2n1
Method in brief: as §1

dasatinib = compound: Cc1nc(Nc2ncc(C(=O)Nc3c(C)cccc3Cl)s2)cc(N2CCN(CCO)CC2)n1 [dasatinib]
Method in brief: as §1

[2] = compound: Cc1ncc(-c2ccnc(Nc3ccc(S(C)(=O)=O)cc3)n2)n1C(C)C
Method in brief: as §1

[3] = compound: Cn1cc(-c2ccc3c(c2)CCN3C(=O)Cc2cccc(C(F)(F)F)c2)c2c(N)ncnc21
Method in brief: as §1

mubritinib = compound: FC(F)(F)c1ccc(/C=C/c2nc(COc3ccc(CCCCn4ccnn4)cc3)co2)cc1 [mubritinib]
Method in brief: as §1

[4] = compound: NC(=O)Nc1cc(-c2cccc(F)c2)sc1C(=O)N[C@H]1CCCNC1
Method in brief: as §1

[5] = compound: NC1(c2ccc(-c3nc4ccn5c(=O)[nH]nc5c4cc3-c3ccccc3)cc2)CCC1
Method in brief: as §1

[6] = compound: NCC(=O)Nc1ccc(-n2nc(C(F)(F)F)cc2-c2ccc3c(ccc4ccccc43)c2)cc1
Method in brief: as §1

entinostat = compound: Nc1ccccc1NC(=O)c1ccc(CNC(=O)OCc2cccnc2)cc1 [entinostat]
Method in brief: as §1

silmitasertib = compound: O=C(O)c1ccc2c(c1)nc(Nc1cccc(Cl)c1)c1ccncc12 [silmitasertib]
Method in brief: as §1

[7] = compound: O=C1NC(=O)C(c2cnc3ccccn23)=C1c1cn2c3c(cc(F)cc13)CN(C(=O)N1CCCCC1)CC2
Method in brief: as §1

[8] = compound: Cc1cccc(CC(=O)N2CCc3c2ccc(-c2cn(C)c4ncnc(N)c24)c3F)n1
Method in brief: as §1

[9] = compound: Cn1cc(-c2ccc3nnc(C(F)(F)c4ccc5ncccc5c4)n3n2)cn1
Method in brief: as §1

vorinostat = compound: O=C(CCCCCCC(=O)Nc1ccccc1)NO [vorinostat]
Method in brief: as §1

tipifarnib = compound: Cn1cncc1[C@@](N)(c1ccc(Cl)cc1)c1ccc2c(c1)c(-c1cccc(Cl)c1)cc(=O)n2C [tipifarnib]
Method in brief: as §1

[10] = compound: NC(=O)c1cnc(N[C@@H]2CCCC[C@@H]2N)nc1Nc1cccc(-n2nccn2)c1
Method in brief: as §1

citarinostat = compound: O=C(CCCCCCNC(=O)c1cnc(N(c2ccccc2)c2ccccc2Cl)nc1)NO [citarinostat]
Method in brief: as §1

[11] = compound: c1cc(OCCN2CCCCC2)cc(-c2n[nH]c3ccc(-c4nnc[nH]4)cc23)c1
Method in brief: as §1

Measured: log2 fold change

B3GNT5 (UniProt Q9BYG0)
inactive: bafetinib -0.053 | nilotinib 0.04 | [1] 0.064 | dasatinib 0.012 | [2] 0.077 | [3] -0.201 | mubritinib 0.054 | [4] 0.01 | [5] 0.002 | [6] 0.118 | entinostat 0.006 | silmitasertib -0.115 | [7] -0.024

B4GALT4 (UniProt O60513)
inactive: bafetinib -0.029 | [8] 0.243 | nilotinib -0.154 | [1] -0.016 | [2] 0.014 | [9] -0.141 | [4] -0.085 | entinostat 0.146 | vorinostat -0.085

BRI3BP (UniProt Q8WY22)
inactive: bafetinib -0.009 | nilotinib 0.028 | [1] -0.013 | dasatinib -0.056 | [2] 0.016 | [3] -0.002 | [9] -0.069 | tipifarnib 0.031 | mubritinib -0.041 | [4] 0.009 | [10] -0.01 | [5] -0.014 | [6] -0.16 | entinostat 0.028 | citarinostat 0.015 | silmitasertib 0.069 | [7] -0.045 | [11] -0.151

ATXN3 isoform 1 (UniProt P54252)
inactive: bafetinib 0.03 | [8] 0.021 | nilotinib -0.038 | [1] -0.11 | [2] -0.021 | [3] 0.001 | [9] 0.033 | tipifarnib 0.026 | mubritinib 0.018 | [10] -0.256 | [5] -0.137 | [6] -0.019 | vorinostat -0.003 | citarinostat -0.01 | silmitasertib 0.093 | [11] -0.015

BDH2 (UniProt Q9BUT1)
inactive: bafetinib 0.114 | [8] 0.069 | dasatinib 0.031 | [3] 0.063 | [9] -0.032 | tipifarnib 0.017 | mubritinib 0.274 | [4] -0.091 | [10] -0.086 | [5] -0.042 | [6] 0.009 | entinostat 0.025 | vorinostat -0.03 | silmitasertib 0.076

ATXN2L (UniProt H3BUF6)
inactive: bafetinib -0.038 | [8] 0.151 | nilotinib 0.151 | [1] -0.15 | [2] 0.168 | [9] -0.154 | tipifarnib -0.072 | mubritinib 0.2 | [5] -0.051 | vorinostat -0.121 | citarinostat -0.058 | silmitasertib -0.012 | [11] 0.072

BRAF (UniProt P15056)
inactive: bafetinib 0.067 | [8] 0.019 | [1] -0.099 | [2] -0.014 | [3] 0.03 | [9] 0.01 | tipifarnib -0.034 | mubritinib -0.059 | [4] -0.102 | [10] -0.079 | [6] -0.046 | entinostat 0.009 | vorinostat 0.012 | citarinostat -0.002 | silmitasertib 0.024 | [7] -0.007 | [11] -0.067

B4GALT7 (UniProt Q9UBV7)
inactive: bafetinib -0.069 | [8] -0.161 | dasatinib -0.044 | [3] -0.18 | [9] -0.012 | tipifarnib -0.085 | mubritinib 0.073 | [4] 0.042 | [10] 0.117 | [5] -0.029 | [6] -0.013 | entinostat -0.03 | vorinostat -0.036 | citarinostat 0.022 | silmitasertib -0.044 | [7] 0.056 | [11] -0.052

BNIP2 (UniProt H7C096)
inactive: bafetinib -0.046 | mubritinib 0.099 | [5] -0.008 | citarinostat 0.332 | silmitasertib 0.178 | [11] -0.041

BCDIN3D (UniProt Q7Z5W3)
inactive: bafetinib 0.036 | [3] 0.133 | [10] -0.048 | citarinostat 0.228 | [11] 0.068

ATXN7L3 isoform 2 (UniProt Q14CW9)
inactive: bafetinib -0.123 | nilotinib 0.024 | [1] 0.043 | [2] -0.054 | [9] 0.03 | mubritinib 0.086 | [4] 0.182 | [10] 0.033 | [5] 0.207 | entinostat -0.346 | citarinostat -0.087 | silmitasertib -0.373 | [11] 0.051

BPNT1 (UniProt A6NF51)
inactive: bafetinib 0.16 | [9] -0.128 | mubritinib 0.143 | [5] 0.011 | [6] 0.04 | citarinostat -0.024 | silmitasertib -0.035 | [7] -0.132 | [11] 0.098

BORCS7 (UniProt Q96B45)
inactive: bafetinib 0.001 | [8] 0.09 | nilotinib 0.062 | [1] -0.009 | dasatinib 0.13 | [2] -0.019 | [3] 0.042 | tipifarnib -0.071 | mubritinib 0.05 | [10] -0.077 | [5] -0.098 | [6] 0.07 | vorinostat -0.037 | citarinostat 0.066 | silmitasertib 0.04 | [11] -0.083

BLVRA (UniProt C9J1E1)
inactive: bafetinib 0.089 | [8] -0.075 | nilotinib -0.343 | [1] 0.328 | dasatinib 0.167 | [2] -0.201 | [3] -0.011 | tipifarnib -0.026 | mubritinib -0.064 | [10] -0.28 | [5] -0.198 | [6] -0.077 | vorinostat 0.018 | silmitasertib 0.138

BCAR1 isoform 6 (UniProt P56945)
inactive: bafetinib 0.129 | [8] -0.007 | dasatinib -0.06 | [3] -0.117 | [9] 0.031 | tipifarnib 0.004 | [4] -0.143 | [10] 0.203 | [6] -0.084 | entinostat 0.022 | vorinostat 0.092 | citarinostat 0.06 | [7] 0.071 | [11] -0.043

BCR (UniProt P11274)
inactive: bafetinib 0.201 | [8] 0.014 | dasatinib 0.195 | [3] -0.149 | [9] -0.059 | tipifarnib -0.091 | mubritinib -0.072 | [5] 0.364 | entinostat -0.099 | vorinostat 0.267 | citarinostat -0.007 | silmitasertib 0.399 | [7] 0.041 | [11] -0.278

AVEN (UniProt Q9NQS1)
inactive: bafetinib -0.045 | [8] -0.124 | dasatinib 0.027 | [3] -0.157 | tipifarnib 0.086 | [6] 0.097 | vorinostat -0.17 | citarinostat 0.082 | [7] -0.033 | [11] -0.122

BPIFA1 (UniProt Q9NP55)
inactive: bafetinib 0.245 | nilotinib -0.049 | [1] 0.019 | [2] 0.19 | [9] 0.247 | mubritinib -0.183 | [4] 1.48 | [5] -0.045 | entinostat -0.061 | citarinostat 0.188 | silmitasertib -0.312 | [11] 0.708

BCOR (UniProt Q6W2J9)
inactive: bafetinib -0.309 | dasatinib 0.174 | [3] -0.157 | [4] -0.399 | [6] -0.271 | entinostat -0.215 | [7] -0.223

Retrieved one by one from above, 2 records:
BCDIN3D (UniProt Q7Z5W3)
inactive: bafetinib 0.036 | [3] 0.133 | [10] -0.048 | citarinostat 0.228 | [11] 0.068

BCR (UniProt P11274)
inactive: bafetinib 0.201 | [8] 0.014 | dasatinib 0.195 | [3] -0.149 | [9] -0.059 | tipifarnib -0.091 | mubritinib -0.072 | [5] 0.364 | entinostat -0.099 | vorinostat 0.267 | citarinostat -0.007 | silmitasertib 0.399 | [7] 0.041 | [11] -0.278

(further entries)

BEX4 (UniProt Q9NWD9)
inactive: bafetinib -0.006 | dasatinib -0.005 | [3] -0.173 | mubritinib -0.093 | [4] -0.074 | [5] -0.147 | entinostat 0.263 | citarinostat 0.115 | silmitasertib 0.213 | [11] -0.301
